No constants are given. Whether binding was seen depends on the method and setting. Binding seen in cells or lysates may run through a third protein. A result given as binding can be weak or reduced; the word gives no strength. Where a sequence is shown, tags or fusion partners need not be part of it.

In assay [1] the target is Flag-RIG-I deletion mutant carrying the C-terminal domain. Kind of assay: co-IP; HEK293T cells co-transfected; lysis buffer 50 mM Tris-HCl pH 7.4, 150 mM NaCl, 10% glycerol, 1% Nonidet P-40, 0.1% SDS, 2 mM Na2EDTA; lysates immunoprecipitated with anti-Flag antibody (overnight, 4 °C, Protein A+G agarose), immunoblotted with anti-HA antibody. (In general: In western blotting, separated proteins are transferred to a membrane and probed.)

The target of assay [2] is Flag-RIG-I-N (N-terminal CARD domain of RIG-I). The assay is described as above.

B1: HA-USP15-WT (ubiquitin-specific protease 15, wild type) (enzyme, UniProt Q9Y4E8-2 1-952)
chain: MAEGGAADLDTQRSDIATLLKTSLRKGDTWYLVDSRWFKQWKKYVGFDSWDKYQMGDQNVYPGPIDNSGLLKDGDAQSLKEHLIDELDYILLPTEGWNKLVSWYTLMEGQEPIARKVVEQGMFVKHCKVEVYLTELKLCENGNMNNVVTRRFSKADTIDTIEKEIRKIFSIPDEKETRLWNKYMSNTFEPLNKPDSTIQDAGLYQGQVLVIEQKNEDGTWPRGPSTPNVKNSNYCLPSYTAYKNYDYSEPGRNNEQPGLCGLSNLGNTCFMNSAIQCLSNTPPLTEYFLNDKYQEELNFDNPLGMRGEIAKSYAELIKQMWSGKFSYVTPRAFKTQVGRFAPQFSGYQQQDCQELLAFLLDGLHEDLNRIRKKPYIQLKDADGRPDKVVAEEAWENHLKRNDSIIVDIFHGLFKSTLVCPECAKISVTFDPFCYLTLPLPMKKERTLEVYLVRMDPLTKPMQYKVVVPKIGNILDLCTALSALSGIPADKMIVTDIYNHRFHRIFAMDENLSSIMERDDIYVFEININRTEDTEHVIIPVCLREKFRHSSYTHHTGSSLFGQPFLMAVPRNNTEDKLYNLLLLRMCRYVKISTETEETEGSLHCCKDQNINGNGPNGIHEEGSPSEMETDEPDDESSQDQELPSENENSQSEDSVGGDNDSENGLCTEDTCKGQLTGHKKRLFTFQFNNLGNTDINYIKDDTRHIRFDDRQLRLDERSFLALDWDPDLKKRYFDENAAEDFEKHESVEYKPPKKPFVKLKDCIELFTTKEKLGAEDPWYCPNCKEHQQATKKLDLWSLPPVLVVHLKRFSYSRYMRDKLDTLVDFPINDLDMSEFLINPNAGPCRYNLIAVSNHYGGMGGGHYTAFAKNKDDGKWYYFDDSSVSTASEDQIVSKAAYVLFYQRQDTFSGTGFFPLDRETKGASAATGIPLESDEDSNDNDNDIENENCMHTN
B1: the binding result in assay [1] and in assay [2] was “binds” throughout.

Source of the values: paper PMC4650652.
